# Experimental data: the supplement of paper PMC12067093, “Discovery and optimisation of a covalent ligand for TRIM25 and its application to targeted protein ubiquitination” (Chemical Science, 2025)
# By UniProt entry, the sequences of proteins in these tests, tags left out. Where a name states a change or a piece, a line headed by the entry shows the natural chain unless it says otherwise.
# UniProt Q96KR1: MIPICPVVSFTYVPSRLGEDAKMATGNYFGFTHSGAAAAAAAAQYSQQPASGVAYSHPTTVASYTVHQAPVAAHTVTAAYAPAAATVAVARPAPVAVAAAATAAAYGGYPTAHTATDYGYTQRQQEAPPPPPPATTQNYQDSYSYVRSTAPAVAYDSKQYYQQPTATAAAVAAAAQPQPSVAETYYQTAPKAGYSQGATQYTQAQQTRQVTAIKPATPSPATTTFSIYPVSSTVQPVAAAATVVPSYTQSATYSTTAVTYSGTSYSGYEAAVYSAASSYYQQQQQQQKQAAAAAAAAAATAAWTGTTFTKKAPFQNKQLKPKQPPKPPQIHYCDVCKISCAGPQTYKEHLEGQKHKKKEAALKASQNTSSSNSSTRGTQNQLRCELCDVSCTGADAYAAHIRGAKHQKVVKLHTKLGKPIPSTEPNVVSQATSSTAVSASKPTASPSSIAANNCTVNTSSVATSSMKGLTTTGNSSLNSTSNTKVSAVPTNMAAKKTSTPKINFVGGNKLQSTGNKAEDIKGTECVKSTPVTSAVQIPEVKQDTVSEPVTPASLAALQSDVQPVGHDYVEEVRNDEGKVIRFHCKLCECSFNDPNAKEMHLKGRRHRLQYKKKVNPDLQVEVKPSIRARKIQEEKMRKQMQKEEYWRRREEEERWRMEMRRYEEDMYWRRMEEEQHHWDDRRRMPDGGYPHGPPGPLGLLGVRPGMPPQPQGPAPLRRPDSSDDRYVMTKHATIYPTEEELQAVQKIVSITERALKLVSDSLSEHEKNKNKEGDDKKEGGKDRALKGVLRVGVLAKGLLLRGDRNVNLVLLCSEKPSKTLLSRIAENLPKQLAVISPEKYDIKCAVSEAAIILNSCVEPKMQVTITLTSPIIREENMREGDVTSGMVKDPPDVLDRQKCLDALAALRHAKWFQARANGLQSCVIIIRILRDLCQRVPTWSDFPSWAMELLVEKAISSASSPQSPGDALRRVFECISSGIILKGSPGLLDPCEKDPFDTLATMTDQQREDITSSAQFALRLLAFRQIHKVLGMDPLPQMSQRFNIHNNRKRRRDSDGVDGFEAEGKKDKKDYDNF
# UniProt Q9UBW7: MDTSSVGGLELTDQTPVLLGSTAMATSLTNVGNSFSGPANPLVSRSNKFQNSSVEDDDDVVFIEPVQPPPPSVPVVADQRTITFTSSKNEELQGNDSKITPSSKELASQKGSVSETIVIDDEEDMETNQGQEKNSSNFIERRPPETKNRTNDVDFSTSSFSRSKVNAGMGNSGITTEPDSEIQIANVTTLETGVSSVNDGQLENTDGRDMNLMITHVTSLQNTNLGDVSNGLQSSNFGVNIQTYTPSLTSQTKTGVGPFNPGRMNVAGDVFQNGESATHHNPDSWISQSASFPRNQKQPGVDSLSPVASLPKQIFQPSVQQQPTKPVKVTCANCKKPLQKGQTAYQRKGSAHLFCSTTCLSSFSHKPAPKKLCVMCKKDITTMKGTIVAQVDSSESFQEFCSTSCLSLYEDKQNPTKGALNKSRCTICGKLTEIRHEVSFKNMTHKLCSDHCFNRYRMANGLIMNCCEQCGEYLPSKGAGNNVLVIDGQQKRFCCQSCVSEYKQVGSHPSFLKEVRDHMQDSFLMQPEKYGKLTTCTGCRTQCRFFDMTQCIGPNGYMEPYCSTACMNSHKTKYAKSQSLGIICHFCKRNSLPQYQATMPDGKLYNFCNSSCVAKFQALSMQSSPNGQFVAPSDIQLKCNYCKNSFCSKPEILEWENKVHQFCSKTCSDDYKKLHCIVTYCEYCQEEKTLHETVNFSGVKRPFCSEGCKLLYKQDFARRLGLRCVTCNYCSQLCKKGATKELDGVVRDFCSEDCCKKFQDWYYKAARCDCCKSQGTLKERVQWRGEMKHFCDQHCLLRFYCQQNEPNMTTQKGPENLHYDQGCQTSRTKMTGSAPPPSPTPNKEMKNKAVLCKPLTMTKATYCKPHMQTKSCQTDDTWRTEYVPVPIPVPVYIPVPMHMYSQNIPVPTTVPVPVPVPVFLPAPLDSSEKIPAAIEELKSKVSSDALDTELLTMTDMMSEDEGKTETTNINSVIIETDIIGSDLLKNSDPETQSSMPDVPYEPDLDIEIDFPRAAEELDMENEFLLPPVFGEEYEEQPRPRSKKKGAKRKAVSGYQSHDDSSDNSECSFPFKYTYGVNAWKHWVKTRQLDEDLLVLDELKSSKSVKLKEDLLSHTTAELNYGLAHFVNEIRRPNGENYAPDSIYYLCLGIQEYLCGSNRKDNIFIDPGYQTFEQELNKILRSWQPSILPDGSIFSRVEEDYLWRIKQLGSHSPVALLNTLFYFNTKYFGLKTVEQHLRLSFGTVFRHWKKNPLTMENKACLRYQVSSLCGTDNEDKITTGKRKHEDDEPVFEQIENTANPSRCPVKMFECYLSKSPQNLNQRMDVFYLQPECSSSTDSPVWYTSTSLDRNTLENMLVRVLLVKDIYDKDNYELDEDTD
# UniProt Q86UK7: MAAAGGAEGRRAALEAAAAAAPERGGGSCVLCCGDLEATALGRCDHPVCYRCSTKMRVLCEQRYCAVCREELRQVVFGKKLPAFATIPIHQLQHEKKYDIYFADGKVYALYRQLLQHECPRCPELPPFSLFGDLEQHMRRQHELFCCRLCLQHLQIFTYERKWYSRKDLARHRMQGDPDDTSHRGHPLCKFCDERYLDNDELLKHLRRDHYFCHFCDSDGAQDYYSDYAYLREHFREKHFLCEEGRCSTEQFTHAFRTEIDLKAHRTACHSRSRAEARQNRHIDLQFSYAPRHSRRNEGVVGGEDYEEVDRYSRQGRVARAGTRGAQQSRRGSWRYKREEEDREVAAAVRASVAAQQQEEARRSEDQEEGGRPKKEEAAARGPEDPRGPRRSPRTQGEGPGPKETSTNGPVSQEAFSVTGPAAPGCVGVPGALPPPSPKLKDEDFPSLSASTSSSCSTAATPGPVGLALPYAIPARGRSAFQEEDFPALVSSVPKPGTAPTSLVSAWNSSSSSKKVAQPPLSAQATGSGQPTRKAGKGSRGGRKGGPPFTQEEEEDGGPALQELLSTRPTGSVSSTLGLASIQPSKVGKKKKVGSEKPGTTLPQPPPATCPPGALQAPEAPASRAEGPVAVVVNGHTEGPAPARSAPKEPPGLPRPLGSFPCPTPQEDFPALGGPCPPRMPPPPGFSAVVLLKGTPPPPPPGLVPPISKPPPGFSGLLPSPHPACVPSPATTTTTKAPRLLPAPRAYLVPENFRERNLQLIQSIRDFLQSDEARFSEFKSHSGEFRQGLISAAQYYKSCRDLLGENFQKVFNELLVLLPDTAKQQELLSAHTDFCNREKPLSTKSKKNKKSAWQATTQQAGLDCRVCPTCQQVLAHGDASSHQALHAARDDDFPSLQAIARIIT
# UniProt Q14202: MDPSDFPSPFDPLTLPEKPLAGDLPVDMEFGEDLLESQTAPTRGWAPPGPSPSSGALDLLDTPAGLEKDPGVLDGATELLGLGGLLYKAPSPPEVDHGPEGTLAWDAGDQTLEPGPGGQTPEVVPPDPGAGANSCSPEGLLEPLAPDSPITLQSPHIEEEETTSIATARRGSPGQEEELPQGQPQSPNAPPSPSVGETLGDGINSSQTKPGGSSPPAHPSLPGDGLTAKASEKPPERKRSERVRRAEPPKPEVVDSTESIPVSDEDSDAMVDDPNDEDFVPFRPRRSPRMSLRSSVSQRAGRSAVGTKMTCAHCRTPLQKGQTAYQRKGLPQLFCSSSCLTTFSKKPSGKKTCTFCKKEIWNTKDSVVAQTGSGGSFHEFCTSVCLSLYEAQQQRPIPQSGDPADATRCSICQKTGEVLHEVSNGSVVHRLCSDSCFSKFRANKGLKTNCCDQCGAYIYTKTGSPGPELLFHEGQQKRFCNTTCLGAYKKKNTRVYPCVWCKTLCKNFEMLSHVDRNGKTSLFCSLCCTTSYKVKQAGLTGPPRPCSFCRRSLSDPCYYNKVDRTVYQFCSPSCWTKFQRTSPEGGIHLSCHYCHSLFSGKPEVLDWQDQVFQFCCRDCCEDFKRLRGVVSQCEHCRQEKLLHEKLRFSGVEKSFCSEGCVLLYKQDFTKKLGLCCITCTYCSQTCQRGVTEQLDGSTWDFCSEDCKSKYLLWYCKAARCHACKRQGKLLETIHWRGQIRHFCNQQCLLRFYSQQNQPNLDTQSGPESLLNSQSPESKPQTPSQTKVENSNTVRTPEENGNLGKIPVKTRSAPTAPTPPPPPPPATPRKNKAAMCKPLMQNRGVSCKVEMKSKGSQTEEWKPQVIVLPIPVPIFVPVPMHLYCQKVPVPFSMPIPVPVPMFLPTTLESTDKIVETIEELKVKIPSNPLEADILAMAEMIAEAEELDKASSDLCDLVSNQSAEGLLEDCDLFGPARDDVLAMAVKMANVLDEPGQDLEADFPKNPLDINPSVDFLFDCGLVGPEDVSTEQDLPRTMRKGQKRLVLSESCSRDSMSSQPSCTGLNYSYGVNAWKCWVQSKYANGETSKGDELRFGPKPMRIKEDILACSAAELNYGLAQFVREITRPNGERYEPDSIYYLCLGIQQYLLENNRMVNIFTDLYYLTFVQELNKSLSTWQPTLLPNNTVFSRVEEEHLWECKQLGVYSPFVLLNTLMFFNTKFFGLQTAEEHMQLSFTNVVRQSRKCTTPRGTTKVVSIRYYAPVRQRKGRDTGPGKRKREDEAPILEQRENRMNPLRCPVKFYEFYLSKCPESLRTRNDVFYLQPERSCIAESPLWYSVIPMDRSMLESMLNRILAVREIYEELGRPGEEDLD
# UniProt Q8N1G0: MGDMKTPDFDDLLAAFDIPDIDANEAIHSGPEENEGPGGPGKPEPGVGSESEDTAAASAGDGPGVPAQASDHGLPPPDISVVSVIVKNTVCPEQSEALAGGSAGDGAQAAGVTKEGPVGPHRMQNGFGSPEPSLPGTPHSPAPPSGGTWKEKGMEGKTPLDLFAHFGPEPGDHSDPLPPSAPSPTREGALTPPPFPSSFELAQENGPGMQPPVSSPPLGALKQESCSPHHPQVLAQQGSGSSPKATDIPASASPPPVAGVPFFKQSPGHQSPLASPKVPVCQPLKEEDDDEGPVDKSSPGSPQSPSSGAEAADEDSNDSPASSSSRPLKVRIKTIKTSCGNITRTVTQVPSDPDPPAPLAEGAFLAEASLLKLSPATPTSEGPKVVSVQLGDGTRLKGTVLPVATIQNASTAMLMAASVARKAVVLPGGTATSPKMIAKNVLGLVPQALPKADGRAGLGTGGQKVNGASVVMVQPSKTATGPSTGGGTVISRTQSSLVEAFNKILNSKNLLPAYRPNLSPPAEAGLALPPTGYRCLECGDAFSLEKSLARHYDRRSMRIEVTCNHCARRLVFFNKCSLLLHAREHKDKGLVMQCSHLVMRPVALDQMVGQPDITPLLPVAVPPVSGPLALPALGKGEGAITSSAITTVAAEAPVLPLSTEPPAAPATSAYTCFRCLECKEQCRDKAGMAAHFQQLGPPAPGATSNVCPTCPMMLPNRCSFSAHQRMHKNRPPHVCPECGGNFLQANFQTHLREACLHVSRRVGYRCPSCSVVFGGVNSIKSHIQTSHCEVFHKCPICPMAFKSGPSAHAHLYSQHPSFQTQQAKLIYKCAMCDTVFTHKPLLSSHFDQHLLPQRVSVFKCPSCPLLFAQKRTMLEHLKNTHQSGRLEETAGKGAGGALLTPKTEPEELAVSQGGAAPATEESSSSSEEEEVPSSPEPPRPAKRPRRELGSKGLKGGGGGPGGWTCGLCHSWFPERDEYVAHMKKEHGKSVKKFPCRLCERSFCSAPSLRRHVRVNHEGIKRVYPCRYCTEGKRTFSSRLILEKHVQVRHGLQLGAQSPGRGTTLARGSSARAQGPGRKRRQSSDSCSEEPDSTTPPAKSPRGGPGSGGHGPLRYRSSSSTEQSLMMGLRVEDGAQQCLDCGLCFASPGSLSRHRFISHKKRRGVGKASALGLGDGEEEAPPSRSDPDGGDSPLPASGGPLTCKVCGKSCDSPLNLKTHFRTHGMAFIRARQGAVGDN
# UniProt P52739: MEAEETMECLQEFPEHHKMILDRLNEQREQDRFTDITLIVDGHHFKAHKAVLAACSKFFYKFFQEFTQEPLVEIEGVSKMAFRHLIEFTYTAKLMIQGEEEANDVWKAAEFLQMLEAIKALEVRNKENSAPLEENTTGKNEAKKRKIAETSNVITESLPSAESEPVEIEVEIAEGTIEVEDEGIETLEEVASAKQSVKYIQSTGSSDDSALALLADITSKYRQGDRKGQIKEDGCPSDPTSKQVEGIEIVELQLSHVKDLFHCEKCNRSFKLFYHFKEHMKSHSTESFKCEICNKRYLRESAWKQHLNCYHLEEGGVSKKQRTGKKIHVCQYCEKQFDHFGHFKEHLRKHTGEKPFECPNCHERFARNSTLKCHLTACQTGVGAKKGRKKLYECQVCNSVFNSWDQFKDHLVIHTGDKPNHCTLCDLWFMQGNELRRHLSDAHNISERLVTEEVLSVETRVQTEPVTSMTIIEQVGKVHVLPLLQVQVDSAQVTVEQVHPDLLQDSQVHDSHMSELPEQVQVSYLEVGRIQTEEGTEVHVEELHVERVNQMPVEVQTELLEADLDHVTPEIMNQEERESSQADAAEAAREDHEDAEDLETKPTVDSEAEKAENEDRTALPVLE
# This is one part of the list.
# Compound: CC1Cc2ccccc2N1C(=O)C1CCCN(C1)C(=O)CCl (mixture of isomers) [TRIM25 ligand 11 (diastereomer mixture)]
# Assay: probe-labelled cysteine peptide fold change vs DMSO (competition) (log2 fold change); higher = less target engagement (more negative = stronger competition)
# Settings: THP-1, incubation time: 4 h
# 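Also: competitive chemoproteomic profiling in live THP-1 cells with an iodoacetamide desthiobiotin (IA-DTB) probe, comparing probe-labelled peptide intensities in compound-treated cells against DMSO-treated controls.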
Target,probe-labelled cysteine peptide fold change (10 µM),probe-labelled cysteine peptide fold change (50 µM)
ZFR_Q96KR1_384+387+391_CELCDVSCTGADAYAAHIR (UniProt Q96KR1),-0.0294,-0.0154
ZNF512_Q96ME7_171+174_GSVSCPTCQAVGR (UniProt Q96ME7),-0.0279,-0.0163
ZMYM2_Q9UBW7_608_LYNFCNSSCVAK (UniProt Q9UBW7),-0.0314,0.0341
ZNF316_A6NFI3_920_THTGERPYACANCGR (UniProt A6NFI3),0.182,0.161
ZNF318_Q5VUA4_1363_SCSATMSK (UniProt Q5VUA4),-0.0388,-0.195
ZMYM2_Q9UBW7_872_SCQTDDTWR (UniProt Q9UBW7),0.135,-0.0499
ZNF638_Q14966_688_EQSLHYGSVLLITELPEDGCTEEDVRK (UniProt Q14966),0.454,-0.112
ZNF598_Q86UK7_864_SAWQATTQQAGLDCR (UniProt Q86UK7),-0.02,-0.0545
ZMYM3_Q14202_501_VYPCVWCK (UniProt Q14202),0.104,0.127
ZNF451_Q9Y4E5_176_GGHTWVSGKPILCPIMHCNK (UniProt Q9Y4E5),-0.0488,-0.131
ZMYM3_Q14202_1048_LVLSESCSR (UniProt Q14202),0.15,0.197
ZNF460_Q14592_450_PYVCIQCGK (UniProt Q14592),-0.141,-0.123
ZFYVE1_Q9HBF4_217_TSPTQESCTVGVWAAYDPVHK (UniProt Q9HBF4),0.285,0.334
ZFR_Q96KR1_333_QPPKPPQIHYCDVCK (UniProt Q96KR1),0.0383,0.0548
ZNF280D_Q6N043_323_CFSCLK (UniProt Q6N043),0.0838,0.233
ZNF687_Q8N1G0_1003_SFCSAPSLR (UniProt Q8N1G0),-0.0505,0.0179
ZMYND11_Q15326_347_ACDELELHQR (UniProt Q15326),0.0457,-0.0127
ZFP64_Q9NPA5_196_CHTGVKPYK (UniProt Q9NTW7),-0.136,-0.215
ZFR_Q96KR1_991_GSPGLLDPCEK (UniProt Q96KR1),0.164,0.0514
ZNF687_Q8N1G0_860_CPSCPLLFAQK (UniProt Q8N1G0),-0.0564,-0.0593

Target,probe-labelled cysteine peptide fold change (10 µM),probe-labelled cysteine peptide fold change (50 µM)
ZNF598_Q86UK7_247_CSTEQFTHAFR (UniProt Q86UK7),0.0211,0.0987
ZNF618_Q5T7W0_635+638_CSACALNSVVQSVLSK (UniProt Q5T7W0),-0.0375,-0.117
ZMYM3_Q14202_1048_RLVLSESCSR (UniProt Q14202),0.141,0.161
ZNF638_Q14966_688_EQSLHYGSVLLITELPEDGCTEEDVR (UniProt Q14966),-0.0726,-0.0326
ZNF131_P52739_235_EDGCPSDPTSK (UniProt P52739),-0.0892,-0.122
ZNF512_Q96ME7_258_ESCSSSFTSIMGYLYHVR (UniProt Q96ME7),0.0956,-0.094
ZMYM4_Q5VZL5_1264_SDPLGSTQDHALSQESSEPGCR (UniProt Q5VZL5),0.125,-0.184
ZMYM2_Q9UBW7_755_DFCSEDCCK (UniProt Q9UBW7),-0.0894,0.0415
ZFPL1_O95159_230_DDDRTPGLHGDCDDDK (UniProt O95159),-0.0658,0.079
ZMYM3_Q14202_311+314_MTCAHCR (UniProt Q14202),-0.216,-0.187
ZNF195_O14628_195_DWESLDECK (UniProt O14628),-0.189,-0.231
ZGPAT_Q8N5A5_180_SLKPCPFFLEGK (UniProt Q8N5A5),-0.064,-0.157
ZFY_P08048_549_NFPHICVECGK (UniProt P08048),0.00079,-0.0448
ZNF598_Q86UK7_33_GGGSCVLCCGDLEATALGR (UniProt Q86UK7),-0.0941,-0.0479
ZFAND5_O76080_170_CGNLFCGLHR (UniProt O76080),-0.114,0.258
ZNF512_Q96ME7_442_CLLCQK (UniProt Q96ME7),0.166,0.0979
ZNF280C_Q8ND82_388_ICELSFETEHILLQHMK (UniProt Q8ND82),-0.0807,-0.0218
ZNF207_O43670_54_KLYTGPGLAIHCMQVHK (UniProt O43670),-0.6,-0.388
ZNF516_Q92618_165_KGAEGSACAPGEAK (UniProt Q92618),-0.0814,-0.0975

# Whole records from above. Values in the order: probe-labelled cysteine peptide fold change (10 µM) | probe-labelled cysteine peptide fold change (50 µM)
# ZNF131_P52739_235_EDGCPSDPTSK (UniProt P52739) in the list: -0.0892 | -0.122
# ZMYM2_Q9UBW7_755_DFCSEDCCK (UniProt Q9UBW7) in the list: -0.0894 | 0.0415
